Source: the supplement of paper PMC12823440, “Inhibitors supercharge kinase turnover through native proteolytic circuits” (Nature, 2025)
Counter-ions that a name gives are not always drawn. Some of the results follow. The calls rarely recur for the same compound in another form.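 In K562 cells expressing nanoluciferase-fused kinases, luminescence was recorded at 4 h intervals between 2 and 18 h, normalized as percent of control with DMSO at 100% and a positive control at 0%. A significant (2 sigma) signal drop marks a time point as decreased. The authors' rule for a hit is not shown and takes in more than the number of time points.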

Sequences of proteins named here, by UniProt entry; tags and fusion partners are left off. A change or cut given only in a name is not applied to a line headed by its entry.
UniProt Q8IWU2: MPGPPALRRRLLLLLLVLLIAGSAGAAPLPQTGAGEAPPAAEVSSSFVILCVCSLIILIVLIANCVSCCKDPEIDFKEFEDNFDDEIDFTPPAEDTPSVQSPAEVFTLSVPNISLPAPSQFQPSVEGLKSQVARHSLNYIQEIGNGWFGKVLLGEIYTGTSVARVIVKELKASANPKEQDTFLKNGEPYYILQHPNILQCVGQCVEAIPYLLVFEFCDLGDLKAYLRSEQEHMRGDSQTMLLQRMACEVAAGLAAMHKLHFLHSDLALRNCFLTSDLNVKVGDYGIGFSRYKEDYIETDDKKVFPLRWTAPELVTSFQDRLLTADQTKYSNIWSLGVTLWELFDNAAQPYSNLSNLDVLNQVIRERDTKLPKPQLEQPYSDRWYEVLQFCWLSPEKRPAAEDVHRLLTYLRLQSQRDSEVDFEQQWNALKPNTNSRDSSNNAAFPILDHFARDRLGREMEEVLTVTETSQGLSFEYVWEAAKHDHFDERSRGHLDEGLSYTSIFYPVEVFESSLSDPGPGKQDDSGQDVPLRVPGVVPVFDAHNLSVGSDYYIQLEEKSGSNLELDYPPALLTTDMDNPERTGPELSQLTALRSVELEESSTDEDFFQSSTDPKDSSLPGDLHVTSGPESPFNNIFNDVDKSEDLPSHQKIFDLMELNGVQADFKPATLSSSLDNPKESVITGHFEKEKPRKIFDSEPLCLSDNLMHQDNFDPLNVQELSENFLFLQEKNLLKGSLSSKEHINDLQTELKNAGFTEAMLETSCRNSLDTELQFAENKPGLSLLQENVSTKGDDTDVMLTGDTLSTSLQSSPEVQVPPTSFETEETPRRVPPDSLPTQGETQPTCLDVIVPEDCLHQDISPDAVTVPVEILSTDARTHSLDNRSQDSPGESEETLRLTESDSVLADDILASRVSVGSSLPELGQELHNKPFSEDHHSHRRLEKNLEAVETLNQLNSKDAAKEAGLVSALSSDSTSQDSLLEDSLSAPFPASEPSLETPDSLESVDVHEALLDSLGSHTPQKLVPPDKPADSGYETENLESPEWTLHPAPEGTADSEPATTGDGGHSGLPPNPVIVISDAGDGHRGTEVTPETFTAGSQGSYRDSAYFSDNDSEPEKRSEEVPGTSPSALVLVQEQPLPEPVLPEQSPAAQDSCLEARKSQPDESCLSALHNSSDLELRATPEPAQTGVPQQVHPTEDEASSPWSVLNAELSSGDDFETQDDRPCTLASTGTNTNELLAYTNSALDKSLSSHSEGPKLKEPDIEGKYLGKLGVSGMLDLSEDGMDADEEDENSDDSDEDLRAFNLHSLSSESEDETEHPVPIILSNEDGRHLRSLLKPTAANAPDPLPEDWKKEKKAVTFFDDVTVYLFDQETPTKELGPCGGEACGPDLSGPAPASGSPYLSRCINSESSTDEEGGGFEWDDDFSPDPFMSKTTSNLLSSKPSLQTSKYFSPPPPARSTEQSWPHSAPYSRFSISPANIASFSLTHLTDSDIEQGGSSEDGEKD
UniProt P07948: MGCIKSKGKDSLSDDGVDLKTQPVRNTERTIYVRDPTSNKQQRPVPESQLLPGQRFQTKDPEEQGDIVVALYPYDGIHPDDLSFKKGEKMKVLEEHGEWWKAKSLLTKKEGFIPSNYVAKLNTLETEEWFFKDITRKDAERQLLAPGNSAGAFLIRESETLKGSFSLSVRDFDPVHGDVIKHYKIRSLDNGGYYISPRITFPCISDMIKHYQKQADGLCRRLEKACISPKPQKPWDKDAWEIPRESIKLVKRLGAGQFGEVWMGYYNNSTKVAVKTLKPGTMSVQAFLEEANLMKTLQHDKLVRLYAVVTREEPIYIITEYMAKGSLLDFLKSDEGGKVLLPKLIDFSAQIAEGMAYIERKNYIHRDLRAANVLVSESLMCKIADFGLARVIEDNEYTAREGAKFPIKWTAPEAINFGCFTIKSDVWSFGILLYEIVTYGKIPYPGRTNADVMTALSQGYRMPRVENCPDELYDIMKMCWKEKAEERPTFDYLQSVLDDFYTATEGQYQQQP
UniProt Q12851: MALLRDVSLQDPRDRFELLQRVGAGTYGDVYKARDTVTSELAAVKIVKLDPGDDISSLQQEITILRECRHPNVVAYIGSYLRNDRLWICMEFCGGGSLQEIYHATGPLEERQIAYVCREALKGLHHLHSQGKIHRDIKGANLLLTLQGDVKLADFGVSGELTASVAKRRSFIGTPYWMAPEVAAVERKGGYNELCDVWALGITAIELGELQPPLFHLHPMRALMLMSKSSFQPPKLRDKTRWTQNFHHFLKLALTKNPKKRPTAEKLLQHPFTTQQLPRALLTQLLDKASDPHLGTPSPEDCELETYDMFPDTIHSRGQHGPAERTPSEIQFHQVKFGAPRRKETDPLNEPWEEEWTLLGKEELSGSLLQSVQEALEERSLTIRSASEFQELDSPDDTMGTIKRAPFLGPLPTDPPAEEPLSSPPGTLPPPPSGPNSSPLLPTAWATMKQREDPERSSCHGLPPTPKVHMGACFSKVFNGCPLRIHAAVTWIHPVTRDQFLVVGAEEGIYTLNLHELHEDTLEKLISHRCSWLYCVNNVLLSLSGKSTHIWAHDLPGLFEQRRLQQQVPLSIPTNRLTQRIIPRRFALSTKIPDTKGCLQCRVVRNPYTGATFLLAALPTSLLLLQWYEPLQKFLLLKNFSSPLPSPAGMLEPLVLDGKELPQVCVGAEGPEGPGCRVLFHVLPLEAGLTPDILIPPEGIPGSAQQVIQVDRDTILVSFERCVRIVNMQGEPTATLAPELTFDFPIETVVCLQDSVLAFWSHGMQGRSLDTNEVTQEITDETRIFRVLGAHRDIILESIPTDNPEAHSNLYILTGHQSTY
UniProt P28482, whole entry: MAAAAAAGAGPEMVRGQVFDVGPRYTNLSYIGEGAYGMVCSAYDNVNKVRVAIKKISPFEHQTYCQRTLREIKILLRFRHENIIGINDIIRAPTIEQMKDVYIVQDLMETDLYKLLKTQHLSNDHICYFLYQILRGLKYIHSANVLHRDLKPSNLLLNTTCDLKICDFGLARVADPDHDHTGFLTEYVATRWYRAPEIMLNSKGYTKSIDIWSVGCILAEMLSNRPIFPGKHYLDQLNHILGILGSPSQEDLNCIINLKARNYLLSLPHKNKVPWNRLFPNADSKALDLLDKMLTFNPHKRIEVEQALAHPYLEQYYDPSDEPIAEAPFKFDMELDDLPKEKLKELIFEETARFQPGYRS
UniProt P31152, whole entry: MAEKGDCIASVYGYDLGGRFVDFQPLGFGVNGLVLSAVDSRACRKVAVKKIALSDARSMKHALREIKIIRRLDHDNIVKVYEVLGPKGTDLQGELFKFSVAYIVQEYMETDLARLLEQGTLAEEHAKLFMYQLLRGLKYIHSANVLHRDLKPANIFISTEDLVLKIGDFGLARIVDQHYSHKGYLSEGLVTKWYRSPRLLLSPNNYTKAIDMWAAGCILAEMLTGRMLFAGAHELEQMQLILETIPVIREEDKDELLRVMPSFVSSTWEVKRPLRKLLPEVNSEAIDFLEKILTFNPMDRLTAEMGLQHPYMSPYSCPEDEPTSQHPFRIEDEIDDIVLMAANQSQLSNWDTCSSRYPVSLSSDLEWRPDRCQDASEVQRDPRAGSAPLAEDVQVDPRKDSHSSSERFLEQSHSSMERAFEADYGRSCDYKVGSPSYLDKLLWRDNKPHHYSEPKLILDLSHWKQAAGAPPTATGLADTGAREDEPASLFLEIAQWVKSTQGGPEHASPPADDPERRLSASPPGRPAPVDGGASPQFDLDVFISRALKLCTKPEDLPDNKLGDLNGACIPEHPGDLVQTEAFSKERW
UniProt P49137, whole entry, looked up: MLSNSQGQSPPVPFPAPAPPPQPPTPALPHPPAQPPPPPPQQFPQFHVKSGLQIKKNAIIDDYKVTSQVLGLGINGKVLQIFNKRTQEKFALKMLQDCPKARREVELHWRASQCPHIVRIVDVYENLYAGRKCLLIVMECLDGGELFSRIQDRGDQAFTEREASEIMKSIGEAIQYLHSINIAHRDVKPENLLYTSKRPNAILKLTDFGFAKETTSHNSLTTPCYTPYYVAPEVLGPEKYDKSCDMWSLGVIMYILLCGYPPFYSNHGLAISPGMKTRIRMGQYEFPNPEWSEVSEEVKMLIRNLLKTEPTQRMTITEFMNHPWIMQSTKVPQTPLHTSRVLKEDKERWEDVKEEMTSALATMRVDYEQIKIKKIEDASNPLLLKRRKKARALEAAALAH
UniProt Q9BUB5: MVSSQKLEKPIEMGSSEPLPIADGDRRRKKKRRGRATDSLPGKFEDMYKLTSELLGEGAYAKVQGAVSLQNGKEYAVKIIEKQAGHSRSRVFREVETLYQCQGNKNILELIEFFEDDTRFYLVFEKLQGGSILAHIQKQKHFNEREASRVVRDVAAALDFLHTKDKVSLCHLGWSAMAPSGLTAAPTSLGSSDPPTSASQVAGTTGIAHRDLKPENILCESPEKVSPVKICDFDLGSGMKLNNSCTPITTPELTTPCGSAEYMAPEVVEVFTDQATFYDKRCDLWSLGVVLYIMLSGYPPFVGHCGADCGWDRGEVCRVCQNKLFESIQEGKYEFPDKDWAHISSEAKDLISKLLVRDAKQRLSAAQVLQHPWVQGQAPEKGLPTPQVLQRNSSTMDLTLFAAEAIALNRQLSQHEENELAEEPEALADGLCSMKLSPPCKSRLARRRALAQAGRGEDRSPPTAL
UniProt Q16620, whole entry, looked up: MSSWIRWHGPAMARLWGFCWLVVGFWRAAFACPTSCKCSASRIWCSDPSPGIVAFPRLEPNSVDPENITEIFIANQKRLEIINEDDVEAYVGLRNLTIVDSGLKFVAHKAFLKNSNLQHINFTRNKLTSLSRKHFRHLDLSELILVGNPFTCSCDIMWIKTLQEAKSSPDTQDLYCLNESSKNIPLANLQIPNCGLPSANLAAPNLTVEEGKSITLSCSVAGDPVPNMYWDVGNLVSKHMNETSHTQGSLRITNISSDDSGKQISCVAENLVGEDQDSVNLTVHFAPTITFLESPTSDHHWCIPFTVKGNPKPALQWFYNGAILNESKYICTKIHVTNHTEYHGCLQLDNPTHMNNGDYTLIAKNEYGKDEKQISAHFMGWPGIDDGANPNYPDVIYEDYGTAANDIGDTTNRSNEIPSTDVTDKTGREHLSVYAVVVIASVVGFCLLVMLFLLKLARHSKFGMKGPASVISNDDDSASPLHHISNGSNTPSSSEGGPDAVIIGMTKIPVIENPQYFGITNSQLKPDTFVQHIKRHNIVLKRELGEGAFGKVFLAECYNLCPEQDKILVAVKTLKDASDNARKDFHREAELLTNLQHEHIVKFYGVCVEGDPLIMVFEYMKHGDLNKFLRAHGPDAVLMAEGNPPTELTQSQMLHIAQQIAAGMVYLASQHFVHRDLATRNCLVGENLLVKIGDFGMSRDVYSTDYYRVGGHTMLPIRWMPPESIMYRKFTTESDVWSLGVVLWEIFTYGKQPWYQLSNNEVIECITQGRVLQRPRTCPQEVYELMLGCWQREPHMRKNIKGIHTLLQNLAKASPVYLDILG

How the values were obtained:
Assay in all cases: number of time points (of 5) at which kinase-Nluc abundance scored as decreased, DMSO-normalised (count); higher = more persistent destabilization
Conditions in all cases: K562; 2-18 h
LMTK2 = LMTK2 (UniProt Q8IWU2)
LYN = LYN (UniProt P07948)
MAP2K1 = MAP2K1 (UniProt Q02750)
MAP2K2 = MAP2K2 (UniProt P36507)
MAP4K2 = MAP4K2 (UniProt Q12851)
MAPK1 = MAPK1 (UniProt P28482)
MAPK4 = MAPK4 (UniProt P31152)
MAPKAPK2 = MAPKAPK2 (UniProt P49137)
MKNK1 = MKNK1 (UniProt Q9BUB5)
NTRK2 = NTRK2 (UniProt Q16620)

Measured: number of time points

Cc1ncc(-c2ccnc(Nc3ccc(S(C)(=O)=O)cc3)n2)n1C(C)C (2.5 µM)
3: LMTK2 | NTRK2
0: all other assays above

Cc1c[nH]c(/C=C2\C(=O)Nc3ccccc32)c1CCC(=O)O (10 µM)
0: all assays above

O=C(c1ccc(-c2ccc(Cl)cc2)o1)N(Cc1ccccn1)c1ccc(N2CCNCC2)cc1 [MK2-IN-1 (hydrochloride)] (10 µM)
1: LYN
0: all other assays above

COC(=O)c1ccc2c(C(=Nc3ccc(N(C)C(=O)CN4CCN(C)CC4)cc3)c3ccccc3)c(O)[nH]c2c1 [Nintedanib] (2.5 µM)
0: all assays above

Cc1cccc(Cn2nc(C3CC3)c3c(NC(=O)c4cnc5cc(OCCN6CCN(C)CC6)ccn45)cccc32)n1 (10 µM)
0: all assays above

CCCCNc1ncc(-c2ccc(CN3CCOCC3)cn2)c(NC2CCC(O)CC2)n1 (stereo not given) (10 µM)
0: all assays above

CN(C)C(=O)/C(C#N)=C/c1ccc(-c2nc3cnc4[nH]ccc4c3n2C2CCCCC2)o1 (10 µM)
0: all assays above

COc1cc(C(=O)NC2CCN(C)CC2)ccc1Nc1ncc2c(n1)N(C1CCCC1)CC(F)(F)C(=O)N2C (10 µM)
0: all assays above

O=c1c(-c2ccc(O)cc2)coc2cc(O)cc(O)c12 [Genistein] (10 µM)
0: all assays above

CC(C)n1cnc2c(NCc3cccc(C(F)(F)F)c3)ncnc21 [Longdaysin] (10 µM)
0: all assays above

Cc1c[nH]c2ccccc12 [Skatole] (10 µM)
0: all assays above

Cc1cc(N2CCOCC2)cc2[nH]c(-c3c(NC[C@@H](O)c4cccc(Cl)c4)cc[nH]c3=O)nc12 (10 µM)
2: MKNK1
0: all other assays above

COCCNCCc1cccc(Nc2ncc3c(n2)-c2ccccc2[C@H](c2ccccc2F)C3)c1 [Derazantinib] (2.5 µM)
0: all assays above

COc1ccc(C=C(C#N)c2cccnc2)cc1OC (10 µM)
0: all assays above

COc1cc(C(=O)NC2CCN(C)CC2)c(F)cc1Nc1ncc2c(n1)N(C1CCCC1)CC(F)(F)C(=O)N2C [TAK-960 (dihydrochloride)] (2.5 µM)
0: all assays above

N#Cc1ccc2[nH]c(O)c(-c3ccc(CN4CCOCC4)cn3)c2c1 (10 µM)
0: all assays above

Nc1ncnc2c1c(-c1cccc(OCc3ccccc3)c1)cn2C1CC(CN2CCCC2)C1 (stereo not given) (2.5 µM)
0: all assays above

CNC(=O)c1cccc2cc(Oc3ccnc4cc(OCC5(N)CC5)c(OC)cc34)ccc12 [Lucitanib] (10 µM)
0: all assays above

C[C@]1(O)C[C@@H](c2nc(-c3ccc4ccc(-c5ccccc5)nc4c3)c3c(N)nccn32)C1 [Linsitinib] (2.5 µM)
0: all assays above

O=C(O)CCNC(=O)c1ccc(/N=N/c2ccc(O)c(C(=O)O)c2)cc1 [Balsalazide] (10 µM)
0: all assays above

COc1cc2c(Nc3ccc(Br)cc3F)ncnc2cc1OCCn1ccnn1 (10 µM)
0: all assays above

CC#CC(=O)N[C@H]1CCCN(c2c(F)cc(C(N)=O)c3[nH]c(C)c(C)c23)C1 [Branebrutinib] (10 µM)
0: all assays above

CC(=O)N1CCN(c2ccc(OCC3COC(Cn4ccnc4)(c4ccc(Cl)cc4Cl)O3)cc2)CC1 (stereo not given) [Ketoconazole] (2.5 µM)
0: all assays above

An excerpt from above in order of heavy-atom count, ascending.
O=C(O)CCNC(=O)c1ccc(/N=N/c2ccc(O)c(C(=O)O)c2)cc1 [Balsalazide] (10 µM)
0: all assays above

CC#CC(=O)N[C@H]1CCCN(c2c(F)cc(C(N)=O)c3[nH]c(C)c(C)c23)C1 [Branebrutinib] (10 µM)
0: all assays above

CC(=O)N1CCN(c2ccc(OCC3COC(Cn4ccnc4)(c4ccc(Cl)cc4Cl)O3)cc2)CC1 (stereo not given) [Ketoconazole] (2.5 µM)
0: all assays above

(cont.)

COc1ccc(COc2ccc(Cc3cnc(N)nc3N)cc2OC)cc1 (10 µM)
0: all assays above

CCCCOc1c(C(=O)c2c(F)cc(C)cc2F)c[nH]c2nncc1-2 (10 µM)
0: all assays above

N#C/C(=C\c1ccc(O)c(O)c1)C(=O)NCc1ccccc1 (10 µM)
0: all assays above

Cc1ccc2c(Nc3ccc(Cl)cc3)nccc2c1Nc1ncccc1-c1ncnc2nc[nH]c12 [Raf inhibitor 1] (2.5 µM)
0: all assays above

COc1ccc(F)c(F)c1C(=O)c1cnc(NC2CCN(S(C)(=O)=O)CC2)nc1N (2.5 µM)
3: LMTK2 | NTRK2
1: LYN | MAP2K1 | MAP2K2
0: all other assays above

O=c1cc(N2CCOCC2)oc2c(-c3ccccc3)cccc12 (10 µM)
0: all assays above

O=C1Nc2ccccc2/C1=C/c1ccc(F)cc1 (10 µM)
0: all assays above

C=CC(=O)N[C@H]1COC[C@H]1Nc1ncc2cc(-c3c(Cl)c(OC)cc(OC)c3Cl)c(=O)n(C)c2n1 (10 µM)
0: all assays above

COc1cc(CCc2cc(-c3nc4ccc(N5CCN(C)CC5)cc4[nH]3)n[nH]2)cc(OC)c1 (10 µM)
1: LMTK2
2: MKNK1
0: all other assays above

O=C(Nc1ccc(-c2ccnc(Nc3ccc(N4CCOCC4)cc3)n2)cc1)C1CCCN1 (stereo not given) (10 µM)
0: all assays above

CN1CCC(Nc2ncc3ncnc(Nc4ccc(F)c(Cl)c4)c3n2)CC1 [Falnidamol] (10 µM)
0: all assays above

COc1ccc2c(NC(=O)Nc3cccc(C(F)(F)F)n3)ccnc2c1 (10 µM)
0: all assays above
